Values from PubChem BioAssay AID1259424 (University of Nebraska Medical Center, 2018)
This is a random part of about 14,000 deposited reagents. 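Higher correlation or smaller distance means closer resemblance to KSR1 loss; control wells, including KSR1 knockdowns, recur on many plates.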 Not all columns of the deposit are shown. The record does not give: the time to read-out.

Aim: 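Rank knockdowns across the genome by resemblance to the KSR1 depletion profile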 (primary screen)
System: human HCT116 colon cancer cells
Reagents: siRNA pool against human genes, 50 nM
Measurement: 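Log2 levels of six mRNAs (branched-DNA multiplex), adjusted by two reference genes and the non-targeting median, then scored against the average KSR1 knockdown pattern as Pearson r and euclidean distance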
Reading the numbers: mean correlation with KSR1 profile: higher = expression change more like KSR1 knockdown; mean distance from KSR1 profile: higher = expression change less like KSR1 knockdown

For ENKD1, the entry reads mean correlation with KSR1 profile 0.543; mean distance from KSR1 profile 1.25.
Against POLK the deposit lists mean correlation with KSR1 profile -0.595; mean distance from KSR1 profile 3.65.
SHH scored mean correlation with KSR1 profile 0.171; mean distance from KSR1 profile 3.01.
For PCBP2, the values are mean correlation with KSR1 profile 0.166; mean distance from KSR1 profile 2.25.
ST8SIA4 scored mean correlation with KSR1 profile -0.431; mean distance from KSR1 profile 1.86.
Knock-down of TCAP resulted in: mean correlation with KSR1 profile -0.417; mean distance from KSR1 profile 3.77.
Knock-down of NDUFAF4 resulted in: mean correlation with KSR1 profile 0.75; mean distance from KSR1 profile 0.985.
Depletion of EFNA1 gave: mean correlation with KSR1 profile 0.186; mean distance from KSR1 profile 1.35.
Silencing of TTC13 came out at: mean correlation with KSR1 profile 0.412; mean distance from KSR1 profile 2.84.
Depletion of P2RY11 gave: mean correlation with KSR1 profile 0.151; mean distance from KSR1 profile 2.76.
Knock-down of TRAF4 came out at: mean correlation with KSR1 profile 0.176; mean distance from KSR1 profile 1.14.
For TMPRSS15 the deposit lists mean correlation with KSR1 profile 0.406; mean distance from KSR1 profile 1.97.

Reformatted: 6 of the entries above.
target gene,mean correlation with KSR1 profile,mean distance from KSR1 profile
NDUFAF4,0.75,0.985
EFNA1,0.186,1.35
TTC13,0.412,2.84
P2RY11,0.151,2.76
TRAF4,0.176,1.14
TMPRSS15,0.406,1.97

More results:
With knock-down of TOPBP1 the results were mean correlation with KSR1 profile 0.655; mean distance from KSR1 profile 1.75.
With knock-down of MUC6, the screen gave mean correlation with KSR1 profile 0.234; mean distance from KSR1 profile 2.84.
Silencing of PPARD gave: mean correlation with KSR1 profile -0.224; mean distance from KSR1 profile 2.68.
Knock-down of REG1B gave: mean correlation with KSR1 profile -0.692; mean distance from KSR1 profile 1.59.
Against KRT13, the entry reads mean correlation with KSR1 profile -0.266; mean distance from KSR1 profile 2.36.
RAD51D showed mean correlation with KSR1 profile 0.0477; mean distance from KSR1 profile 2.84.
Knock-down of FAM117A resulted in: mean correlation with KSR1 profile 0.341; mean distance from KSR1 profile 2.27.
CYP2J2 gave mean correlation with KSR1 profile 0.181; mean distance from KSR1 profile 1.97.
Silencing of MRGPRF resulted in: mean correlation with KSR1 profile -0.0397; mean distance from KSR1 profile 3.18.
Knock-down of RIN2 resulted in: mean correlation with KSR1 profile -0.431; mean distance from KSR1 profile 2.81.
After knock-down of JAM2, the record shows mean correlation with KSR1 profile -0.104; mean distance from KSR1 profile 1.97.
VLDLR showed mean correlation with KSR1 profile 0.427; mean distance from KSR1 profile 0.912.
Silencing of EIF1B resulted in: mean correlation with KSR1 profile -0.169; mean distance from KSR1 profile 1.68.
QTRT2 gave mean correlation with KSR1 profile 0.608; mean distance from KSR1 profile 1.61.
ASNSD1 scored mean correlation with KSR1 profile -0.839; mean distance from KSR1 profile 2.47.
TXNDC16 scored mean correlation with KSR1 profile -0.212; mean distance from KSR1 profile 1.66.
Depletion of SULT1A3 gave: mean correlation with KSR1 profile -0.0659; mean distance from KSR1 profile 1.61.
Depletion of CDH19 came out at: mean correlation with KSR1 profile 0.875; mean distance from KSR1 profile 0.586.
With knock-down of MCUB the results were mean correlation with KSR1 profile -0.573; mean distance from KSR1 profile 3.28.
After knock-down of BDP1, the screen gave mean correlation with KSR1 profile 0.163; mean distance from KSR1 profile 4.18.
Against MYLK2 the deposit lists mean correlation with KSR1 profile 0.0132; mean distance from KSR1 profile 1.87.
Silencing of MRPS7 came out at: mean correlation with KSR1 profile -0.369; mean distance from KSR1 profile 4.09.
Against CHMP5, the entry reads mean correlation with KSR1 profile -0.499; mean distance from KSR1 profile 2.79.
Against SLC71A3P, the values are mean correlation with KSR1 profile 0.669; mean distance from KSR1 profile 1.6.
